Assay [1] has as its target linear (CGHHQKG) (SEQ ID NO: 2) peptide-BSA (UniProt P02769). The experiment in a line: SPR single cycle kinetics; IgG4 in cell supernatant captured on Protein A chip; peptide-BSA injected at four rising concentrations, 0.025 to 0.675 nM [Cont.].
For assay [2] the target is unchanged. The experiment in a line: SPR single cycle kinetics; IgG4 in cell supernatant captured on Protein A chip; peptide-BSA injected at four rising concentrations, 0.025 to 0.675 nM.
The target is the same in assay [3]. Put plainly: SPR, purified IgG4 vs linear peptide-BSA. (Surface plasmon resonance follows binding to a sensor surface in real time, without labels.)

Amino acid sequences for entries named in this document (tags omitted). A change or cut given only in a name is not applied to a line headed by its entry.
UniProt P02769: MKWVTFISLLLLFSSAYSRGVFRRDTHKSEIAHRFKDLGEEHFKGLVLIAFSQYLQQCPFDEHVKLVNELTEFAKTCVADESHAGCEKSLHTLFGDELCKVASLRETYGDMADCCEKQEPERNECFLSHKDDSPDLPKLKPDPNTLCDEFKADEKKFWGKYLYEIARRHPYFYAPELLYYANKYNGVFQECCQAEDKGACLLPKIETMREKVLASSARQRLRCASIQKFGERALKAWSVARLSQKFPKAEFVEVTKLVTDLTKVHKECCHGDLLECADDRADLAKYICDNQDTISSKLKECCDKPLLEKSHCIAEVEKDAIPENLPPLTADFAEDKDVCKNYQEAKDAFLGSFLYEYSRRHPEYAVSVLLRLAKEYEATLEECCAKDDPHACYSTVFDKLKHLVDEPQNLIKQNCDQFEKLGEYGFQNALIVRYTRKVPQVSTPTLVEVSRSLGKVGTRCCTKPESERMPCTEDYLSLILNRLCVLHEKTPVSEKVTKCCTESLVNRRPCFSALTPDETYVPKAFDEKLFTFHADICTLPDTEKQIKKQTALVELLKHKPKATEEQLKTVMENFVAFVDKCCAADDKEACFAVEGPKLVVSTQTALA

Where a chain is given by its changes, count along the chain named. Names may count otherwise. These are yes or no findings as the source states them, for the method shown. Some entries that bind do so weakly or less than the wild type.

B1: Clone 16 (antibody, human IgG4 S228P, kappa, V domains shown)
VH: QVQLVQSGAEVKKPGASVKMSCKASGYSFTSYWINWVKQRPGQGLEWIGDVHPGRGVSTYNAKFKSRATLTLDTSISTAYMELSSLRSEDTAVYYCSRSHGNTPWFLDDWGQGTTVTVSS
VL: DVLMTQSPLSLPVTLGQPASISCRSSQSIVHSNGNTYLEWYQQRPGQSPRLLIYKVSNRFSGVPDRFSGSGSGTDFTLKISRVEAEDVGVYYCFQGSHVPFTFGQGTKLEIKR
B1: in assay [1], the binding result is reported as “binds”.

B2: Clone 18 (antibody, human IgG4 S228P, kappa, V domains shown)
VH: B1 VH with T103S, W105A, L107F, D109V
VL: B1 VL
As for B2, the binding result in assay [2] is “binds”.

B3: Clone 5 (affinity matured VH with parental Vk, human IgG4 S241P / kappa) (antibody, V domains shown)
VH: B1 VH with S97A, S99G, H100A, G101L, N102S, T103P, P104Y, L107F, D109V
VL: B1 VL
With B3, the binding entry in assay [3] and in assay [2] was “binds” throughout.

B4: Clone 6 (antibody, human IgG4 S228P, kappa, V domains shown)
VH: B1 VH with H100S, G101P, N102F, T103N, P104Y, L107F, D109V
VL: B1 VL
As for B4, the binding entry in assay [1] is “binds”.

B5: Clone 7 (antibody, human IgG4 S228P, kappa, V domains shown)
VH: B1 VH with S97A, H100P, G101S, N102S, P104Y, L107F, D109V
VL: B1 VL
As for B5, the binding result in assay [1] is “binds”.

B6: parental antibody, PMN310 humanized antibody variant VH2/Vk5 (human IgG4 S241P / kappa) (antibody, V domains shown)
VH: B1 VH with P104Y, L107F, D109V
VL: B1 VL
As for B6, the binding entry in assay [3] and in assay [1] was “binds” each time.

Source of the values: US20230141177A1.
